Measurements from publication PMC11341764, “Sae2 controls Mre11 endo- and exonuclease activities by different mechanisms” (Nature Communications, 2024).
Results are given in words; binding and its absence hold for the method and conditions named. For some assays here: Binding seen in cells or lysates may run through a third protein. Some entries that bind do so weakly or less than the wild type. Sequences can lack the tags named with a protein.

T1: Rad50 (wild-type, untagged) (budding yeast (endogenous in yeast cells)) (UniProt P12753)
T1 sequence: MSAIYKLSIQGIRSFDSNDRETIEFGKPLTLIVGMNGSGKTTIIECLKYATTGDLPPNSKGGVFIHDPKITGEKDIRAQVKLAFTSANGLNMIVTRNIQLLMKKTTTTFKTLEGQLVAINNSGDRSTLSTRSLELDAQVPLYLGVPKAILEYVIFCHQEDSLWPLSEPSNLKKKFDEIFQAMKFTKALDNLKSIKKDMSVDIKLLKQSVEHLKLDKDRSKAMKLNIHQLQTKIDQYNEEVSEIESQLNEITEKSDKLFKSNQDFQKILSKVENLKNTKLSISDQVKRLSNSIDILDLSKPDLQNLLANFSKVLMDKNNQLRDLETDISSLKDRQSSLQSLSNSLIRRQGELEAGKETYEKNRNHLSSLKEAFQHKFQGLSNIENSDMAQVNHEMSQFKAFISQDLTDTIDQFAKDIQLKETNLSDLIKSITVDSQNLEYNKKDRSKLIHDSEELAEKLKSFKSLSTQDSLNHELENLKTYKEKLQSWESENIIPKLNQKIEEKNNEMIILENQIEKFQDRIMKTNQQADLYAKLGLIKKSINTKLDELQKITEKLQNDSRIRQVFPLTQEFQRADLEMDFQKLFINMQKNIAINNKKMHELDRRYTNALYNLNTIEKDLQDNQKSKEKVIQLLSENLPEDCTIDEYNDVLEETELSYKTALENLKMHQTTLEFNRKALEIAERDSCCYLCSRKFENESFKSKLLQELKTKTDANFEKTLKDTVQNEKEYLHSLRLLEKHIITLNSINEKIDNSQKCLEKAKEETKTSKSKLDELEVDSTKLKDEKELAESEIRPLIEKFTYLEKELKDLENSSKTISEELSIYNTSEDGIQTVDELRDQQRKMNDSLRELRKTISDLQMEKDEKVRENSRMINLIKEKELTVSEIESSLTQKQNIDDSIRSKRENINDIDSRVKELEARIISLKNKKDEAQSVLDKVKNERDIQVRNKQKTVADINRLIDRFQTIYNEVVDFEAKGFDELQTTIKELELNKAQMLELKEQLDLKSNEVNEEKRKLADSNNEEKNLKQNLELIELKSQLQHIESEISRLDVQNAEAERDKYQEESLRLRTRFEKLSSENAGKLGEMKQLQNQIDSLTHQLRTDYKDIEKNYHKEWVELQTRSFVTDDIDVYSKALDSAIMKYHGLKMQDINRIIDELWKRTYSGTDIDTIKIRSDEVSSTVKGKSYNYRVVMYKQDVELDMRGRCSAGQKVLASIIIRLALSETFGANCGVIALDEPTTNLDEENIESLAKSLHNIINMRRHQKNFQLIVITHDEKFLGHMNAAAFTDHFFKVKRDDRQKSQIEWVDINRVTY

T2: His-tagged Mre11 (yeast) (UniProt P32829)
T2 sequence: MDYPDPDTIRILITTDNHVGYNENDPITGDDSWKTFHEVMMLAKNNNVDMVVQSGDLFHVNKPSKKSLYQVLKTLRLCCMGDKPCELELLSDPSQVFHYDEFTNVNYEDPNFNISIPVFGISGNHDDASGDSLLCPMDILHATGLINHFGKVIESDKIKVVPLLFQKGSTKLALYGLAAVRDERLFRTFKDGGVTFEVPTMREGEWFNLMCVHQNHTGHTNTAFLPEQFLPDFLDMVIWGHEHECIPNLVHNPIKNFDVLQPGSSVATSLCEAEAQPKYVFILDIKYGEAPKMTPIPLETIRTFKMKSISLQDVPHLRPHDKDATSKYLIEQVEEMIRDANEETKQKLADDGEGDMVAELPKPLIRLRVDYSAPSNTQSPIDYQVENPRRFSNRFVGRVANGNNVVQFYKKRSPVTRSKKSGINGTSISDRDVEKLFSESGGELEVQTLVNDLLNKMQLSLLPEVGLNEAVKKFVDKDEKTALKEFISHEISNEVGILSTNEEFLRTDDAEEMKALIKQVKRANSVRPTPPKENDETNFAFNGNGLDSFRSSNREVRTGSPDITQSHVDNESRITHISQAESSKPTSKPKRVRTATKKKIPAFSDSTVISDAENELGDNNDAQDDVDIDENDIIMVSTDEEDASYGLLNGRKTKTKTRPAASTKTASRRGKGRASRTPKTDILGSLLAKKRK


How the values were obtained:
[1] = target: T1, Rad50 (wild-type, untagged) (budding yeast (endogenous in yeast cells)); assay: co-IP; extracts of yeast cells carrying HA-tagged MRE11 and untagged Rad50 variants; immunoprecipitation with anti-Rad50 antibodies, immunoblotting with anti-HA or anti-Rad50
[2] = target: T2, His-tagged Mre11 (yeast); assay: co-purification by two affinity steps; His-tagged Mre11 and FLAG-tagged Xrs2 expressed in Sf9 cells; NiNTA and anti-FLAG affinity chromatography; Coomassie gel

Row | Binder | binding [1] | binding [2]
1 | HA-tagged Mre11 (protein, UniProt P32829 1-692) MDYPDPDTIRILITTDNHVGYNENDPITGDDSWKTFHEVMMLAKNNNVDMVVQSGDLFHVNKPSKKSLYQVLKTLRLCCMGDKPCELELLSDPSQVFHYDEFTNVNYEDPNFNISIPVFGISGNHDDASGDSLLCPMDILHATGLINHFGKVIESDKIKVVPLLFQKGSTKLALYGLAAVRDERLFRTFKDGGVTFEVPTMREGEWFNLMCVHQNHTGHTNTAFLPEQFLPDFLDMVIWGHEHECIPNLVHNPIKNFDVLQPGSSVATSLCEAEAQPKYVFILDIKYGEAPKMTPIPLETIRTFKMKSISLQDVPHLRPHDKDATSKYLIEQVEEMIRDANEETKQKLADDGEGDMVAELPKPLIRLRVDYSAPSNTQSPIDYQVENPRRFSNRFVGRVANGNNVVQFYKKRSPVTRSKKSGINGTSISDRDVEKLFSESGGELEVQTLVNDLLNKMQLSLLPEVGLNEAVKKFVDKDEKTALKEFISHEISNEVGILSTNEEFLRTDDAEEMKALIKQVKRANSVRPTPPKENDETNFAFNGNGLDSFRSSNREVRTGSPDITQSHVDNESRITHISQAESSKPTSKPKRVRTATKKKIPAFSDSTVISDAENELGDNNDAQDDVDIDENDIIMVSTDEEDASYGLLNGRKTKTKTRPAASTKTASRRGKGRASRTPKTDILGSLLAKKRK | binds | 
2 | FLAG-tagged Xrs2 (protein, UniProt P33301 1-854) MWVVRYQNTLEDGSISFISCCLQAFKTYSIGRSSKNPLIIKNDKSISRQHITFKWEINNSSDLKHSSLCLVNKGKLTSLNKKFMKVGETFTINASDVLKSTIIELGTTPIRIEFEWINEVWNIPPHLTQFRTMLSEYGISTEISINDIPANLMISDYPKSEDNSIRELYALVSTIPMKKSRFLMELCNTLLPTSKTNLKFDEMWNDMISNPEYNVFDFDPNILLSKFMRLNNIRVLTTIKSEPRLSSLLRTFNINLFAFDNIDSLYKYVDSLEASTEYLILTTTDKKENGKILCTIKTMLTSIIDGTLSAVINMKGASSRTLDNGKFDQISEGMSTILKTSRAPEVEASPVVSKKRKLNRRRVLPLDSLDFFAGGLSTKTLSENRSLTDAKRLNCGAESKTVISSPNIAEADEKHAPFLQNALKPTEDIGKKSGHSSPGAIIVSSPNLGTVNTSEDSLDKSLQSHKLPQPSLPEVAGIGSQTISSNSADYETAAVNSMDDAEVTKNFRVNHHQNIEQPSKNIRKLSNYSREISSPLQENCKSPVKELSIKEKSGTPHAFVEAIQETKNREVKRVKSTIVELKDEELSEEAINQLKNLAIVEPSNNLLRKSFDSEGNKTSRTTEKWENSLMEPEWHKRKNFKTFVKVRPKSKAHKEEGKNNTQSSDFIRNAAFLITRNYVPLKKYSKKDTTTKWGTEENEDMFALTEMERFGSNTFMSDNINSNTIQKRSQALNRFTNEDSSNEGEEDSFSFSRCSGTAASVQPLKNKIFITDEDDLGDIDDKSDRLNHRENNRNLFVVKEMNLRPNLSEECSKQSRHSRSATSRSRGSFGASNNGDGDDDDDDGPKFTFKRRKG |  | binds
